# Out of some 360,000 compounds screened, about 7,500 (2.1%) were called active. The inconclusive results got no clear call from the source; some entries with a clear call stand among them for comparison. Calls come from the whole dose curve; as a rule, active = well fitted inhibition curve with a large enough effect; inconclusive = small, poorly fitted or top-dose-only effect, or effect the other way; inactive = flat fitted curve, though single readings scatter. Potencies beside an inconclusive call are fits to weak or partial responses and may not hold up.
# Assay: Nrf2 qHTS screen for inhibitors; note: nearly all actives have a fitted effect of over 60% in size
# Details: A549 ARE-Fluc reporter, luciferase luminescence, 18-24 h; series mostly up to 46 µM
# How it was run: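 Quantitative HTS in A549 cells stably bearing an antioxidant response element-firefly luciferase construct. Inhibition of Nrf2-driven transcription was scored by luminescence after 18-24 h of compound exposure at 37 °C.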
# Potency is the fitted concentration of half-maximal effect.
row,SMILES,Potency
1,CCOC(=O)c1ccc(NS(=O)(=O)c2ccc3[nH]c4c(c3c2)CCCCC4)cc1,"inconclusive: 11.6 µM [falling, partial curve, poor fit]"
2,CN(C)S(=O)(=O)c1cc(C(=O)NCCCn2ccc3ccccc32)ccc1Cl,"inconclusive: 32.6 µM [falling, partial curve, poor fit]"
3,Cc1ccccc1NC(=O)C1CCN(S(=O)(=O)c2ccc3c(c2)NC(=O)C(C)S3)CC1 (stereo unspecified),inactive
4,CCOC(=O)c1ccsc1NC(=O)c1ccco1,"inconclusive: 25.9 µM [falling, partial curve, poor fit]"
5,Cc1cc(C)n2nc(-c3sccc3-n3c(C)ccc3C)cc2n1,"inconclusive: 14.6 µM [activator, single point]"
6,C[C@]12C=CC(=O)C=C1CC[C@@H]1[C@@H]2[C@@H](O)C[C@@]2(C)[C@H]1CC[C@]2(O)C(=O)COC(=O)CCC(=O)NCCc1ccc(O)cc1,active: 0.116 µM
7,COC(=O)c1cccc(NS(=O)(=O)c2cccs2)c1C,"inconclusive: 16.4 µM [activator, single point]"
8,CN(CC(=O)Nc1ccc(S(=O)(=O)N2CCCC2)cc1)CC(=O)Nc1cccc(F)c1,"inconclusive: 2.91 µM [falling, full curve, poor fit]"
9,COc1ccc(Oc2nc(-c3ccccn3)ncc2OC)cc1,inactive
10,O=C(Cn1cc(C(F)(F)F)ccc1=O)N/N=C/c1ccc(Cl)c(Cl)c1,inactive
11,O=C(Nc1ccc(Br)cc1)c1ccccc1Br,"inconclusive: 23.1 µM [activator, single point]"
12,O=C(Cc1ccc(NC(=O)C2CCCN(C(=O)CCc3ccccc3)C2)cc1)Nc1cccc(C(=O)N2CCCCC2)c1 (stereo unspecified),"inconclusive: 20.6 µM [falling, single point]"
13,CCOC(=O)C1CCN(C(=O)C2CCC(=O)N(CC3CCCCC3)C2)CC1 (stereo unspecified),"inconclusive: 29.1 µM [activator, single point]"
14,Cn1c(SCC(=O)c2ccccc2)nnc1-c1ccccn1,"inconclusive: 14.6 µM [activator, partial curve, poor fit]"
15,COCC(=O)Nc1cc(C(=O)NCC(C)C)ccc1Cl,inactive
16,CCn1cnc2c(Nc3ccc(Cc4cccnc4)cc3)nc(C#N)nc21,"inconclusive: 14.6 µM [falling, partial curve, poor fit]"
17,O=C(N1CCOCC1)N1CCN(c2ccccn2)CC1,"inconclusive: 16.4 µM [activator, partial curve, poor fit]"
18,Cc1ccc(NC(=O)/C=C/c2cccs2)c([N+](=O)[O-])c1,"inconclusive: 10.3 µM [activator, partial curve]"
19,O=C(Cn1cnc2c(nnn2Cc2ccccc2F)c1=O)NCc1ccco1,"inconclusive: 32.6 µM [activator, single point]"
20,O=C(CN1CCOCC1)NNC(=O)c1ccc([N+](=O)[O-])cc1,inactive
21,O=C(Nc1ccc(CN2CCOCC2)cc1)c1cccc(-c2cc3ccccc3oc2=O)c1,"inconclusive: 18.4 µM [falling, single point]"
22,CCO[C@H]1OC(C(=O)N2CCN(Cc3ccccc3)CC2)=C[C@@H](c2ccc(C(F)(F)F)cc2)[C@@H]1CCCO,active: 29.1 µM

row,SMILES,Potency
1,O=c1cc(CSc2nnc(COc3cccc4ccccc34)o2)c2ccccc2[nH]1,"inconclusive: 7.31 µM [falling, single point]"
2,CCOc1ccccc1C1CC(=O)Nc2cc(C)c(C)cc21 (stereo unspecified),"inconclusive: 32.6 µM [falling, single point]"
3,CCN(CC)C(=O)CCn1nc(-c2ccc(C)cc2)c2ccccc2c1=O,"inconclusive: 16.4 µM [falling, partial curve, poor fit]"
4,Cc1cccc(Nc2c3c(nc4nncn24)CCC3)c1C,inactive
5,COc1ccc2c(c1)c1c(c(=O)n(-c3ccccc3C)c(=O)n1Cc1c(F)cccc1Cl)n2C,"inconclusive: 0.517 µM [activator, full curve, poor fit]"
6,O=C1N=C(N2CCOCC2)S/C1=C\C=C/c1ccccc1,"inconclusive: 7.31 µM [activator, partial curve]"
7,COc1ccccc1NC(=O)Nc1nc(CC(=O)Nc2ccccc2F)cs1,inactive
8,COc1ccc(NC(=O)CN2CCN(S(=O)(=O)c3ccc(Cl)cc3)CC2)cc1Cl,"inconclusive: 0.0058 µM [falling, full curve, poor fit]"
9,Cc1c(Cc2ccccc2)c(=O)n2c([nH]c3ccccc32)c1C#N,active: 14.6 µM
10,O=S(=O)(Nc1ccc(Cl)cc1)c1cccc(S(=O)(=O)c2ccc(Cl)c(Cl)c2)c1,"inconclusive: 20.6 µM [falling, single point]"
11,COc1ccc2c(c1OC)C(=O)N(c1cccc(C)c1)C2,"inconclusive: 14.6 µM [activator, partial curve, poor fit]"
12,COC(=O)C1=CN(C2CC2)C=C(C(=O)OC)C1c1ccc(C(=O)OC)cc1,inactive
13,Cc1cccc(NC(=O)C2CCCN(c3nc4ccccc4s3)C2)c1C (stereo unspecified),"inconclusive: 25.9 µM [activator, single point]"
14,O=C1/C(=C/c2ccccc2)CN(C(=O)CCN2CCOCC2)C/C1=C\c1ccccc1,"inconclusive: 29.1 µM [falling, single point]"
15,COc1ccc(C2=C(CN(C)C)C(c3ccccc3)c3ccccc3O2)cc1 (stereo unspecified),"inconclusive: 16.4 µM [falling, partial curve]"
16,COc1ccc(/C=N/Nc2ncc(-c3ccccc3)cn2)c(OC)c1,"inconclusive: 9.2 µM [falling, partial curve, poor fit]"
17,Cc1ccc(NC(=O)Nc2cnc3ccccc3c2)cc1,"inconclusive: 14.6 µM [activator, partial curve]"
18,Brc1ccc(CNc2cc3c(cc2Br)OCCO3)cc1,"inconclusive: 36.6 µM [falling, partial curve, poor fit]"
19,ClC1(Cl)CC1CSc1nc2ccccc2[nH]1 (stereo unspecified),"inconclusive: 16.4 µM [activator, partial curve]"
20,COc1ccc(CCN2C(=O)CC(NNc3ccc([N+](=O)[O-])cc3)C2=O)cc1OC (stereo unspecified),inactive
21,Cc1nc2cc(-c3cccc(F)c3)nn2c(C)c1CCC(=O)NC(C)CCc1ccco1 (stereo unspecified),active: 0.82 µM
22,Brc1ccc(-c2cnc(-c3cccs3)o2)cc1,"inconclusive: 23.1 µM [activator, partial curve]"

# An excerpt from above in order of count of non-hydrogen atoms, largest number first:
row,SMILES,Potency
5,COc1ccc2c(c1)c1c(c(=O)n(-c3ccccc3C)c(=O)n1Cc1c(F)cccc1Cl)n2C,"inconclusive: 0.517 µM [activator, full curve, poor fit]"
1,O=c1cc(CSc2nnc(COc3cccc4ccccc34)o2)c2ccccc2[nH]1,"inconclusive: 7.31 µM [falling, single point]"
2,CCOc1ccccc1C1CC(=O)Nc2cc(C)c(C)cc21 (stereo unspecified),"inconclusive: 32.6 µM [falling, single point]"
6,O=C1N=C(N2CCOCC2)S/C1=C\C=C/c1ccccc1,"inconclusive: 7.31 µM [activator, partial curve]"
22,Brc1ccc(-c2cnc(-c3cccs3)o2)cc1,"inconclusive: 23.1 µM [activator, partial curve]"

# Remaining list, next part:

row,SMILES,Potency
1,COC(=O)COc1ccc(/C=N/NC(=O)c2ccc(N(Cc3ccccc3)S(C)(=O)=O)cc2)cc1,inactive
2,Cc1ccc(S(=O)(=O)N(CC(=O)c2ccc(Cl)cc2)C(=O)N2CCN(C)CC2)cc1,inactive
3,Cc1ccc(CCNC(=O)c2ccc(NC(=O)N3CCSc4ccccc43)cc2)cc1,inactive
4,O=C(NC1CCN(Cc2ccccc2)CC1)C12CC3CC(CC(C3)C1)C2,inactive
5,Cc1ccc(C)c(N2CCN(c3nc4c(S(=O)(=O)c5ccccc5)nnn4c4ccc(Cl)cc34)CC2)c1,"inconclusive: 0.164 µM [falling, full curve, poor fit]"
6,Cc1cccc(N2CCN(C(=O)c3cccc(N4C(=O)C5C6C=CC(C6)C5C4=O)c3)CC2)c1C (stereo unspecified),active: 18.4 µM
7,COc1ccc(N2CCN(c3cc(C)nc4nncn34)CC2)cc1,"inconclusive: 16.4 µM [falling, partial curve, poor fit]"
8,CCCCCCCCCn1ccc(=N)cc1,active: 3.26 µM
9,Cc1nc2c(c(=O)n1CCC1=CCCCC1)c1nc3ccccc3nc1n2/N=C/c1ccco1,"inconclusive: 0.731 µM [falling, full curve, poor fit]"
10,CCOc1ccc(NS(=O)(=O)c2ccc(C(=O)N(C)CC(=O)Nc3ccccc3Br)cc2)cc1,"inconclusive: 20.6 µM [falling, single point]"
11,O=C(CNC(=O)c1cccs1)NC1=NCCS1,"inconclusive: 20.6 µM [activator, single point]"
12,Cc1ccc(NCC(=O)Nc2cccc(F)c2)cc1S(=O)(=O)N1CCCCCC1,"inconclusive: 20.6 µM [falling, single point]"
13,O=C(C1CCCO1)N1CCN(C(=S)Nc2cccc(F)c2)CC1 (stereo unspecified),"inconclusive: 0.0411 µM [falling, partial curve, poor fit]"
14,O=C(Nc1ccccc1)OCC1CCCO1 (stereo unspecified),"inconclusive: 11.6 µM [activator, partial curve]"
15,Cc1ccc(NC(=O)Cn2nnc(C(=O)NCCc3ccccc3)c2N)cc1Cl,"inconclusive: 25.9 µM [activator, single point]"
16,CCc1ccc2c(c1)c(=O)c(S(=O)(=O)c1ccccc1)cn2CC(=O)Nc1ccc(OC)cc1,inactive
17,O=C(COc1cccc2ccccc12)NCc1cccnc1,"inconclusive: 23.1 µM [activator, single point]"
18,Cc1ccc(NC(=O)c2cc(S(=O)(=O)Nc3ccc(C)cc3)cs2)cc1,"inconclusive: 32.6 µM [falling, single point]"
19,O=C(Cc1ccccc1)NCC(=O)N/N=C/c1ccc([N+](=O)[O-])s1,"inconclusive: 14.6 µM [falling, single point]"
20,COc1ccc(S(=O)(=O)NN(C)c2nc(C(F)(F)F)nc3ccccc23)cc1,"inconclusive: 20.6 µM [activator, partial curve]"
21,Cc1cccc(NC(=O)CCC(=O)c2cccs2)n1,"inconclusive: 16.4 µM [activator, single point]"
22,COc1ccc(CNC(=O)c2cc(S(=O)(=O)N3CCOCC3)cn2C)cc1,"inconclusive: 2.31 µM [falling, single point]"

# Source: PubChem BioAssay AID504444 (National Center for Advancing Translational Sciences (NCATS), 2011)
